# Test results from the supplement of paper PMC10849652.
# Protein sequences, listed by entry. Tags and fused reporters are not part of them. Lines headed by an entry give the natural chain unless they say otherwise; changes in a name come on top.
# UniProt O75390: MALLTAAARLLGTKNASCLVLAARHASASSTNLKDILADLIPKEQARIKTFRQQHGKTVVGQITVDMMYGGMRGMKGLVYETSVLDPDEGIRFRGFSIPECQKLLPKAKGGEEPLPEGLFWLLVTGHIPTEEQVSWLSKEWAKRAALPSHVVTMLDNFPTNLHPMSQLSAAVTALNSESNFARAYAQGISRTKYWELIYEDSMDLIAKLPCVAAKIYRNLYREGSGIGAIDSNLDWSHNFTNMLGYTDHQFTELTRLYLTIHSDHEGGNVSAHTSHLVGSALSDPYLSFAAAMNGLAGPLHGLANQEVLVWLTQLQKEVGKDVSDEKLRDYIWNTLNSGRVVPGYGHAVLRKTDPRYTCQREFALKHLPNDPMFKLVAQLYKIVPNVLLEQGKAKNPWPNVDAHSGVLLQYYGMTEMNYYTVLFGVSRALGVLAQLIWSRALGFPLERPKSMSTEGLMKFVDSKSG
# UniProt Q17RY0: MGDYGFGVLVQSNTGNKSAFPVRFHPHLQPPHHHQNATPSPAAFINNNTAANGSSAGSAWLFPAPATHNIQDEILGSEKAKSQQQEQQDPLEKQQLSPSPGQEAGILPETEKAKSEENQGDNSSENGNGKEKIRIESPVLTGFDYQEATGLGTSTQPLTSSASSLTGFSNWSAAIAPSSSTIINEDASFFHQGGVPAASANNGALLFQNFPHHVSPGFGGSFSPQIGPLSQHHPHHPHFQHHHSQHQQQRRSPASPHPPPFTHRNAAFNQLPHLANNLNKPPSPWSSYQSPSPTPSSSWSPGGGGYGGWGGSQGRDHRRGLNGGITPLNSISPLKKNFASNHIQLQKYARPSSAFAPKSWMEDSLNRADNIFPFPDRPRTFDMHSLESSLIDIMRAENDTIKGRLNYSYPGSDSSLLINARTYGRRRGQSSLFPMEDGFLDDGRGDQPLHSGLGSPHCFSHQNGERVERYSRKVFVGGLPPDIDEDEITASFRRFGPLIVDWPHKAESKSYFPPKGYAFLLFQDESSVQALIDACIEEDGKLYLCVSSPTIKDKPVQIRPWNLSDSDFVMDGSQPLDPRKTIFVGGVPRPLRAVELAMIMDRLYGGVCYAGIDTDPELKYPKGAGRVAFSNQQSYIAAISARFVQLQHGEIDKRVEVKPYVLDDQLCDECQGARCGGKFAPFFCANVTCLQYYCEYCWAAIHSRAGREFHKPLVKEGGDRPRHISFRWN
# UniProt Q9P021, whole entry, looked up: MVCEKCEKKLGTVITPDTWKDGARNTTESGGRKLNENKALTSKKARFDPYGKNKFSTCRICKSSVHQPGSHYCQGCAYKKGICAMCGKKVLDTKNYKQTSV
# UniProt Q49B96: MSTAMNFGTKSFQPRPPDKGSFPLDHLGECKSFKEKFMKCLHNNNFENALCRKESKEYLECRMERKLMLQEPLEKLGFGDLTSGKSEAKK
# UniProt P35606: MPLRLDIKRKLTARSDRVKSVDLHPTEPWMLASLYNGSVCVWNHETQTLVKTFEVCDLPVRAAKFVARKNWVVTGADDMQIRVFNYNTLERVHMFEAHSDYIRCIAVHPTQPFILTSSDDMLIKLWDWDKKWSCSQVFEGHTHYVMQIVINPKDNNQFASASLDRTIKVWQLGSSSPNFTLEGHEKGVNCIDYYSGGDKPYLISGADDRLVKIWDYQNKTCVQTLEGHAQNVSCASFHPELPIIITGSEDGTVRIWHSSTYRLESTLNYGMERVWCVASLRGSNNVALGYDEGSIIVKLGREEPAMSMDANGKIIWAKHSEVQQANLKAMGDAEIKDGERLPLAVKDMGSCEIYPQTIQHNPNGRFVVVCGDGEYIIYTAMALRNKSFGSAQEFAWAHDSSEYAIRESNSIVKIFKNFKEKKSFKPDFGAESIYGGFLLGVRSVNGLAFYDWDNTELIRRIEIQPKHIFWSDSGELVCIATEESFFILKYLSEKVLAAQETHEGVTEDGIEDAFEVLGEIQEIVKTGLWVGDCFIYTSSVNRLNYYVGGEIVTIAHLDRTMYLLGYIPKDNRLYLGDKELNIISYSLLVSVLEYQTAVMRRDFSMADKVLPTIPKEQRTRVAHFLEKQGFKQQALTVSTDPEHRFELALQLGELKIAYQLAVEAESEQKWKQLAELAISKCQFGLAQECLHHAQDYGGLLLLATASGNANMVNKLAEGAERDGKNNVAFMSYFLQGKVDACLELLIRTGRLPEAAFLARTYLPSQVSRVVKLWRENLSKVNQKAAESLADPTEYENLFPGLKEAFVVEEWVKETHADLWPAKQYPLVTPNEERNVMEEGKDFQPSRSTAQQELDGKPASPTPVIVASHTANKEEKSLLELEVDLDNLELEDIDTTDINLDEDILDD
# UniProt Q14194, whole entry, looked up: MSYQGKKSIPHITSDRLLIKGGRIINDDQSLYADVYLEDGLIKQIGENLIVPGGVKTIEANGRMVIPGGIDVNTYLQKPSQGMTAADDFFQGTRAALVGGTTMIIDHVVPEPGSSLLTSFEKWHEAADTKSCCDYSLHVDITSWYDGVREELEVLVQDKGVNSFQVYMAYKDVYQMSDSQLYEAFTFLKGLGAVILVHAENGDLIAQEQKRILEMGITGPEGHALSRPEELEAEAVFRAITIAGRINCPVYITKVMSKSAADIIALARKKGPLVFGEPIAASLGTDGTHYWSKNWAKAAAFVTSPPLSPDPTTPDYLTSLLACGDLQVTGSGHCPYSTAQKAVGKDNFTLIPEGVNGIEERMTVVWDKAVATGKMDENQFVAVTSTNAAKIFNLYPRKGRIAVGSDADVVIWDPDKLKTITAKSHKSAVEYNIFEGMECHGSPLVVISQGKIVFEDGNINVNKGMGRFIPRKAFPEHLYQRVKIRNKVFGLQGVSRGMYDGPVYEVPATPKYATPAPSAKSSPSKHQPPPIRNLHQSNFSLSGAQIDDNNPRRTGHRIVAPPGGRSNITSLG
# UniProt P12074, whole entry, looked up: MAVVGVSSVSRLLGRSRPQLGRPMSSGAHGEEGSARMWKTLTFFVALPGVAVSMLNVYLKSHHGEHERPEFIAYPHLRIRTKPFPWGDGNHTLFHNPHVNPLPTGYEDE
# UniProt P78368: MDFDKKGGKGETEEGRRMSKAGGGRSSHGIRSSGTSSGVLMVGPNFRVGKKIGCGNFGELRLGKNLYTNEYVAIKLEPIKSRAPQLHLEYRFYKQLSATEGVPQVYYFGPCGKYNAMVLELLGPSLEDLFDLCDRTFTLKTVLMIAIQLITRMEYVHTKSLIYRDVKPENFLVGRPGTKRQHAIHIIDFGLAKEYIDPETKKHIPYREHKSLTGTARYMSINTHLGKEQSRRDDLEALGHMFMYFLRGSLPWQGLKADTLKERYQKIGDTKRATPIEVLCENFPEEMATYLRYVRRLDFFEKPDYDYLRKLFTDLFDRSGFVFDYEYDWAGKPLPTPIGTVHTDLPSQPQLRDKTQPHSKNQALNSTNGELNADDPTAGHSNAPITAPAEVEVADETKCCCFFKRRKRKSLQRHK
# UniProt P20674, whole entry, looked up: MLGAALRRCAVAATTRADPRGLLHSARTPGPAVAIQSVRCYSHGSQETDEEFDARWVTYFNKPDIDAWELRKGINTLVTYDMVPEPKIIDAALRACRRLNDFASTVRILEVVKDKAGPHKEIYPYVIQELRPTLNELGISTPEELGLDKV
# UniProt P12109: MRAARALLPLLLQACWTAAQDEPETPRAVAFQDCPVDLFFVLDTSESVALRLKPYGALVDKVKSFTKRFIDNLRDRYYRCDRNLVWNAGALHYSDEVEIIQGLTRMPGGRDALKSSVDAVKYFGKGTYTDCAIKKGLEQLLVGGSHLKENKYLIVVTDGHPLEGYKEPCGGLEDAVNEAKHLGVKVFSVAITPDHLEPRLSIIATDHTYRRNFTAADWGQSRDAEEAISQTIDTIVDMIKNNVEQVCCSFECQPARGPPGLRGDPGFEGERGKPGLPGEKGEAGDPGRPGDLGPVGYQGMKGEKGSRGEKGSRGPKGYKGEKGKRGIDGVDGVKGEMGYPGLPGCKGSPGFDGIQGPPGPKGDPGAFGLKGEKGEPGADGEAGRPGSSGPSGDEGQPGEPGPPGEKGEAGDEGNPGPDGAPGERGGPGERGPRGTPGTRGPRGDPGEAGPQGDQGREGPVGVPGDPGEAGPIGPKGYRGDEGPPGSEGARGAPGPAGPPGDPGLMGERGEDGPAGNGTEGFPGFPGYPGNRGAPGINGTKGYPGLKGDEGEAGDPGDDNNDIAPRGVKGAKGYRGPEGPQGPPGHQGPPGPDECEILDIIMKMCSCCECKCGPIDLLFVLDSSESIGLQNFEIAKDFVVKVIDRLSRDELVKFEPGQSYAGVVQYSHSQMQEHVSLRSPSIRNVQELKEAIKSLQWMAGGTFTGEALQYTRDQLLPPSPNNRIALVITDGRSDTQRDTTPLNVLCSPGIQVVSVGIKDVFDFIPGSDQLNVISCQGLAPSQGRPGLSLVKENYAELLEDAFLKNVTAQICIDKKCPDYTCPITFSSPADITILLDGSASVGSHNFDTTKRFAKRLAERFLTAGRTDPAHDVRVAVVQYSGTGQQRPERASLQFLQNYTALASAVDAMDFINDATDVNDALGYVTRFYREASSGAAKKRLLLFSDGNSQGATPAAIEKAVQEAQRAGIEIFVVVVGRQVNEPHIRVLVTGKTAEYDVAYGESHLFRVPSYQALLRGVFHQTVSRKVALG
# UniProt Q9H3G5: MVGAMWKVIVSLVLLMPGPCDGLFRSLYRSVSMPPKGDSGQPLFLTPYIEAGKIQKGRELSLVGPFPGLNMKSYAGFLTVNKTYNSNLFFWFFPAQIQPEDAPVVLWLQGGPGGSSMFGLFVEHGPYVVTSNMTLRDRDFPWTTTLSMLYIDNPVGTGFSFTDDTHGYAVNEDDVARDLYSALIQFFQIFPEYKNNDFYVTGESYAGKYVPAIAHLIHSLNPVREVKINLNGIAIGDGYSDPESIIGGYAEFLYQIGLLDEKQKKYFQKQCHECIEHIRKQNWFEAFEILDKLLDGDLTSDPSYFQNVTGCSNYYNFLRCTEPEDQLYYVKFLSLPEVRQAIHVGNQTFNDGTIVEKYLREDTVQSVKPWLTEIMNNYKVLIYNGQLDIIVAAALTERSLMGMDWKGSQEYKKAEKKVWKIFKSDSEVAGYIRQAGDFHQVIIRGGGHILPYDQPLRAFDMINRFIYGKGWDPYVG
# UniProt Q14061: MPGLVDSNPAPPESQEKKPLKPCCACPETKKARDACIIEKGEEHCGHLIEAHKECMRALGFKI
# UniProt Q7L5N1: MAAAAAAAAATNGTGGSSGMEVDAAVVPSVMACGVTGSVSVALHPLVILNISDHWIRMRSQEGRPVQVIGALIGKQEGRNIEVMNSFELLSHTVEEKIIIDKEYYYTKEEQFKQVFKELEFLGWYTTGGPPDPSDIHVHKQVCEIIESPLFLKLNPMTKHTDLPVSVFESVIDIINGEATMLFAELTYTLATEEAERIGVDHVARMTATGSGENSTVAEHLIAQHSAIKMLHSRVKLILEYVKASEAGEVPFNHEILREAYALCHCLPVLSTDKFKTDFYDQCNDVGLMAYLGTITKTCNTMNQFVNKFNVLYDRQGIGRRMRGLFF
# UniProt Q5TA50: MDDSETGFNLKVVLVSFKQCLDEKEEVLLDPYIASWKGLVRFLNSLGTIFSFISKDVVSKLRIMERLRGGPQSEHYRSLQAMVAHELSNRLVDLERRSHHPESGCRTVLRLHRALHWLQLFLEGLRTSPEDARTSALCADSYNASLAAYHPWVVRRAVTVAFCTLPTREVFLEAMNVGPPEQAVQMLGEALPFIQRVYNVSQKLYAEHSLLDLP
# UniProt Q49AN0: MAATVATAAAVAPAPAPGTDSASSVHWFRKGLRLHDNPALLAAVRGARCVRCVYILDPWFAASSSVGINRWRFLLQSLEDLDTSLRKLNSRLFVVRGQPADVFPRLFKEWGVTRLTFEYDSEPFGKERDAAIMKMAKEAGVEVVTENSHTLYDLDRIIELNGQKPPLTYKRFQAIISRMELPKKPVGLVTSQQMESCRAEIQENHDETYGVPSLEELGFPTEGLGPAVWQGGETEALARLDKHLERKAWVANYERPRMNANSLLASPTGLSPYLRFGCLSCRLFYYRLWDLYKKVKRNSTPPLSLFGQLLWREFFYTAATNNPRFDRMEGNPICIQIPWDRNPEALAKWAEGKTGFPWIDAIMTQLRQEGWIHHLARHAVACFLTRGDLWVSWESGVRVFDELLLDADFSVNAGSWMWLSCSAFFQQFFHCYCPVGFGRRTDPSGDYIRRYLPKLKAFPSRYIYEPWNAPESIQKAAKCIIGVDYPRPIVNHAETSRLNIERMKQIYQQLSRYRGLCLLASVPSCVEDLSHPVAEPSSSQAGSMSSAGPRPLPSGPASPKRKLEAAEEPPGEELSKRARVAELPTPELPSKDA
# UniProt P78560: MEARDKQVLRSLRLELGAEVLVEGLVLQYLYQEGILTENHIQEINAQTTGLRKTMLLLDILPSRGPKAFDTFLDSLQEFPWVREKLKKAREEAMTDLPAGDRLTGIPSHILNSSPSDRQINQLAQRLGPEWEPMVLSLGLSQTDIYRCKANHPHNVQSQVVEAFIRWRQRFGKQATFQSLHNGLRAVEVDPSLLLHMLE
# The other results are listed elsewhere or left out.
# How the values were obtained:
# Assay in all cases: log2 fold change, soluble protein after heating vs DMSO (PISA); higher = thermal stabilisation; K562 cells, 10 uM, 30 min; active = over 0.2 and 3.5 SD of the protein, either way, in both replicates (recomputed)
# [1] = compound: NC(=O)Nc1cc(-c2cccc(F)c2)sc1C(=O)N[C@H]1CCCNC1
# In short: (§1)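 For each measurement, 10 μM compound was applied for 30 min to K562 cells at 2×10^6 cells/mL. Aliquots were heated for 3 min across 48°C-58°C, pooled, and extracted in PBS with 0.5% NP-40 at 4°C; the supernatant after 21,000xg for 90 min was soluble protein. This was quantified by TMTpro 16plex LC-MS/MS with channel sums equalised, and thermal stability was reported relative to control samples from duplicates, on a log2 fold-change scale.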
# [2] = compound: NC(=O)c1cnc(N[C@@H]2CCCC[C@@H]2N)nc1Nc1cccc(-n2nccn2)c1
# In short: as §1
# [3] = compound: NCC(=O)Nc1ccc(-n2nc(C(F)(F)F)cc2-c2ccc3c(ccc4ccccc43)c2)cc1
# In short: as §1
# entinostat = compound: Nc1ccccc1NC(=O)c1ccc(CNC(=O)OCc2cccnc2)cc1 [entinostat]
# In short: as §1
# vorinostat = compound: O=C(CCCCCCC(=O)Nc1ccccc1)NO [vorinostat]
# In short: as §1
# [4] = compound: O=C1NC(=O)C(c2cnc3ccccn23)=C1c1cn2c3c(cc(F)cc13)CN(C(=O)N1CCCCC1)CC2
# In short: as §1
# citarinostat = compound: O=C(CCCCCCNC(=O)c1cnc(N(c2ccccc2)c2ccccc2Cl)nc1)NO [citarinostat]
# In short: as §1
# [5] = compound: c1cc(OCCN2CCCCC2)cc(-c2n[nH]c3ccc(-c4nnc[nH]4)cc23)c1
# In short: as §1
# [6] = compound: NC1(c2ccc(-c3nc4ccn5c(=O)[nH]nc5c4cc3-c3ccccc3)cc2)CCC1
# In short: as §1
# silmitasertib = compound: O=C(O)c1ccc2c(c1)nc(Nc1cccc(Cl)c1)c1ccncc12 [silmitasertib]
# In short: as §1
Target,log2 fold change [1],log2 fold change [2],log2 fold change [3],log2 fold change (entinostat),log2 fold change (vorinostat),log2 fold change [4],log2 fold change (citarinostat),log2 fold change [5],log2 fold change [6],log2 fold change (silmitasertib)
CRTC1 isoform 2 (UniProt Q6UUV9),inactive: -0.132,inactive: -0.151,inactive: 0.01,inactive: 0.044,inactive: 0.012,inactive: -0.371,,,,
CRIP2 isoform 2 (UniProt P52943),inactive: -0.049,inactive: -0.161,inactive: -0.022,inactive: 0.031,,inactive: 0.046,inactive: 0.009,inactive: -0.001,,
COLGALT1 (UniProt Q8NBJ5),inactive: 0.007,inactive: 0.026,inactive: 0.053,inactive: 0.002,inactive: -0.022,inactive: 0.161,inactive: 0.008,inactive: -0.06,inactive: -0.045,inactive: 0.04
CS (UniProt O75390),inactive: -0.024,inactive: -0.087,inactive: 0.007,inactive: 0.001,inactive: 0.064,inactive: 0.003,inactive: 0.012,inactive: -0.068,inactive: -0.187,inactive: -0.039
COMMD5 (UniProt Q9GZQ3),inactive: -0.007,inactive: -0.021,inactive: -0.042,inactive: -0.001,inactive: -0.043,inactive: -0.02,inactive: 0.067,inactive: 0.035,inactive: -0.124,inactive: -0.005
CPEB4 (UniProt Q17RY0),inactive: -0.032,inactive: -0.08,inactive: -0.132,inactive: 0.024,inactive: -0.013,,inactive: 0.054,inactive: -0.062,inactive: 0.064,inactive: 0
CRIPT (UniProt Q9P021),inactive: -0.094,inactive: 0.04,inactive: -0.016,inactive: 0.058,inactive: -0.003,inactive: -0.123,inactive: -0.073,inactive: 0.009,inactive: 0.119,inactive: 0.007
COMT (UniProt P21964),inactive: -0.052,active: 0.356,inactive: -0.022,inactive: -0.022,inactive: -0.054,inactive: -0.086,inactive: 0.052,inactive: 0.015,inactive: -0.015,inactive: -0.057
COX19 (UniProt Q49B96),inactive: 0.049,inactive: -0.013,inactive: 0.005,inactive: -0.038,inactive: -0.021,inactive: -0.011,inactive: -0.007,inactive: -0.017,inactive: -0.014,inactive: 0.009
CPPED1 (UniProt Q9BRF8),inactive: 0.003,inactive: 0.003,inactive: -0.015,inactive: -0.006,inactive: 0.006,inactive: 0.008,inactive: 0.027,inactive: -0.011,inactive: -0.032,inactive: 0.005
COMMD8 (UniProt Q9NX08),inactive: 0.062,inactive: -0.013,,inactive: 0.096,inactive: -0.036,inactive: 0.055,inactive: 0.017,inactive: -0.068,inactive: -0.108,inactive: 0.03
COPB2 (UniProt P35606),inactive: -0.035,inactive: -0.034,inactive: -0.038,inactive: -0.019,inactive: 0.008,inactive: -0.054,inactive: 0.017,inactive: -0.024,inactive: -0.066,inactive: 0.014
COPS3 (UniProt Q9UNS2),inactive: 0,inactive: -0.034,inactive: 0.011,inactive: 0.002,inactive: -0.003,inactive: -0.021,inactive: 0.014,inactive: -0.019,inactive: -0.002,inactive: -0.02
CRMP1 isoform 2 (UniProt Q14194),inactive: -0.121,inactive: 0,inactive: -0.099,inactive: -0.055,inactive: 0.193,,,,,
CSNK1A1 (UniProt P48729),inactive: -0.067,inactive: -0.001,inactive: 0.019,inactive: 0.023,inactive: -0.087,inactive: 0.243,inactive: 0.016,inactive: -0.084,inactive: 0.031,inactive: 0.048
COX6A1 (UniProt P12074),inactive: -0.027,inactive: -0.109,inactive: 0.023,inactive: 0.053,,,inactive: -0.1,inactive: -0.257,inactive: 0.082,inactive: -0.101
CSNK1G2 (UniProt P78368),inactive: 0.057,inactive: -0.089,,inactive: -0.136,inactive: -0.034,inactive: 0,inactive: -0.09,inactive: -0.09,inactive: -0.11,inactive: 0.053

Target,log2 fold change [1],log2 fold change [2],log2 fold change [3],log2 fold change (entinostat),log2 fold change (vorinostat),log2 fold change [4],log2 fold change (citarinostat),log2 fold change [5],log2 fold change [6],log2 fold change (silmitasertib)
COX5A (UniProt P20674),inactive: 0.019,inactive: 0.103,inactive: 0.024,inactive: 0.024,inactive: -0.078,inactive: -0.228,inactive: -0.041,inactive: -0.046,inactive: 0.117,inactive: -0.055
CSNK1D (UniProt P48730),inactive: -0.043,inactive: 0.185,inactive: -0.02,inactive: -0.062,inactive: 0,inactive: 0.107,inactive: -0.025,inactive: 0.173,inactive: 0.106,inactive: 0.054
CPSF2 (UniProt Q9P2I0),inactive: 0.025,inactive: 0.04,inactive: -0.083,inactive: 0.013,inactive: 0.049,inactive: 0.063,inactive: -0.003,inactive: -0.043,inactive: -0.051,inactive: 0.269
COPG1 (UniProt Q9Y678),inactive: -0.002,inactive: 0.007,inactive: -0.013,inactive: 0.016,inactive: 0.022,inactive: -0.044,inactive: 0.059,inactive: -0.025,inactive: -0.053,inactive: 0.016
COL6A1 (UniProt P12109),inactive: -0.136,inactive: -0.065,inactive: -0.028,inactive: -0.119,inactive: 0.028,,inactive: -0.069,inactive: 0.299,inactive: 0.159,inactive: 0.152
CPVL (UniProt Q9H3G5),inactive: -0.122,inactive: 0.03,inactive: -0.085,inactive: -0.06,inactive: -0.039,inactive: -0.148,inactive: -0.055,inactive: 0.041,inactive: -0.139,inactive: -0.004
COX17 (UniProt Q14061),inactive: -0.002,inactive: 0.017,inactive: 0.052,inactive: 0.048,inactive: -0.077,inactive: -0.141,,,inactive: -0.088,inactive: 0.119
COPS6 (UniProt Q7L5N1),inactive: 0.026,inactive: 0.005,inactive: 0.058,inactive: 0.019,inactive: -0.014,inactive: -0.044,inactive: 0.026,inactive: -0.025,inactive: -0.047,inactive: -0.004
CPTP (UniProt Q5TA50),inactive: 0.132,,,inactive: -0.114,,,,,inactive: -0.317,inactive: 0.169
COQ2 (UniProt Q96H96),,,,,,inactive: 1.24,inactive: 0.079,inactive: -0.043,,
CPNE7 (UniProt Q9UBL6),,inactive: -0.088,inactive: -0.046,,,,inactive: 0.008,inactive: 0.059,inactive: -0.111,inactive: -0.026
COL3A1 (UniProt P02461),,,inactive: 0.213,,inactive: 0.032,inactive: 0.089,,,,
COL6A3 (UniProt P12111),,,,,inactive: 0.21,inactive: -0.087,inactive: -0.025,inactive: 0.072,,
CRY2 (UniProt Q49AN0),,inactive: 0.032,inactive: -0.013,,,,,,,
CRADD (UniProt P78560),,inactive: -0.618,inactive: -0.155,,,,,,,
CREB3L2 (UniProt Q70SY1),,inactive: -0.102,inactive: 0.035,,,inactive: -0.076,,,inactive: -0.074,inactive: 0.023

# Nothing new here: entries from further up.
Target,log2 fold change [1],log2 fold change [2],log2 fold change [3],log2 fold change (entinostat),log2 fold change (vorinostat),log2 fold change [4],log2 fold change (citarinostat),log2 fold change [5],log2 fold change [6],log2 fold change (silmitasertib)
COX17 (UniProt Q14061),inactive: -0.002,inactive: 0.017,inactive: 0.052,inactive: 0.048,inactive: -0.077,inactive: -0.141,,,inactive: -0.088,inactive: 0.119
COPS6 (UniProt Q7L5N1),inactive: 0.026,inactive: 0.005,inactive: 0.058,inactive: 0.019,inactive: -0.014,inactive: -0.044,inactive: 0.026,inactive: -0.025,inactive: -0.047,inactive: -0.004
CPTP (UniProt Q5TA50),inactive: 0.132,,,inactive: -0.114,,,,,inactive: -0.317,inactive: 0.169
COQ2 (UniProt Q96H96),,,,,,inactive: 1.24,inactive: 0.079,inactive: -0.043,,
CPNE7 (UniProt Q9UBL6),,inactive: -0.088,inactive: -0.046,,,,inactive: 0.008,inactive: 0.059,inactive: -0.111,inactive: -0.026
COL3A1 (UniProt P02461),,,inactive: 0.213,,inactive: 0.032,inactive: 0.089,,,,
COL6A3 (UniProt P12111),,,,,inactive: 0.21,inactive: -0.087,inactive: -0.025,inactive: 0.072,,
CRY2 (UniProt Q49AN0),,inactive: 0.032,inactive: -0.013,,,,,,,
CRADD (UniProt P78560),,inactive: -0.618,inactive: -0.155,,,,,,,
CREB3L2 (UniProt Q70SY1),,inactive: -0.102,inactive: 0.035,,,inactive: -0.076,,,inactive: -0.074,inactive: 0.023
